Test results from the supplement of paper PMC12823440, “Inhibitors supercharge kinase turnover through native proteolytic circuits” (Nature, 2025).
Counter-ions that a name gives are not always drawn. The list shows a part of the results. The calls rarely recur for the same compound in another form.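 In K562 cells expressing nanoluciferase-fused kinases, luminescence was recorded at 4 h intervals between 2 and 18 h, normalized as percent of control with DMSO at 100% and a positive control at 0%. A significant (2 sigma) signal drop marks a time point as decreased. The authors' rule for a hit is not shown and takes in more than the number of time points.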

Protein sequences, listed by entry. Tags and fused reporters are not part of them. Lines headed by an entry give the natural chain unless they say otherwise; changes in a name come on top.
UniProt Q9UM73: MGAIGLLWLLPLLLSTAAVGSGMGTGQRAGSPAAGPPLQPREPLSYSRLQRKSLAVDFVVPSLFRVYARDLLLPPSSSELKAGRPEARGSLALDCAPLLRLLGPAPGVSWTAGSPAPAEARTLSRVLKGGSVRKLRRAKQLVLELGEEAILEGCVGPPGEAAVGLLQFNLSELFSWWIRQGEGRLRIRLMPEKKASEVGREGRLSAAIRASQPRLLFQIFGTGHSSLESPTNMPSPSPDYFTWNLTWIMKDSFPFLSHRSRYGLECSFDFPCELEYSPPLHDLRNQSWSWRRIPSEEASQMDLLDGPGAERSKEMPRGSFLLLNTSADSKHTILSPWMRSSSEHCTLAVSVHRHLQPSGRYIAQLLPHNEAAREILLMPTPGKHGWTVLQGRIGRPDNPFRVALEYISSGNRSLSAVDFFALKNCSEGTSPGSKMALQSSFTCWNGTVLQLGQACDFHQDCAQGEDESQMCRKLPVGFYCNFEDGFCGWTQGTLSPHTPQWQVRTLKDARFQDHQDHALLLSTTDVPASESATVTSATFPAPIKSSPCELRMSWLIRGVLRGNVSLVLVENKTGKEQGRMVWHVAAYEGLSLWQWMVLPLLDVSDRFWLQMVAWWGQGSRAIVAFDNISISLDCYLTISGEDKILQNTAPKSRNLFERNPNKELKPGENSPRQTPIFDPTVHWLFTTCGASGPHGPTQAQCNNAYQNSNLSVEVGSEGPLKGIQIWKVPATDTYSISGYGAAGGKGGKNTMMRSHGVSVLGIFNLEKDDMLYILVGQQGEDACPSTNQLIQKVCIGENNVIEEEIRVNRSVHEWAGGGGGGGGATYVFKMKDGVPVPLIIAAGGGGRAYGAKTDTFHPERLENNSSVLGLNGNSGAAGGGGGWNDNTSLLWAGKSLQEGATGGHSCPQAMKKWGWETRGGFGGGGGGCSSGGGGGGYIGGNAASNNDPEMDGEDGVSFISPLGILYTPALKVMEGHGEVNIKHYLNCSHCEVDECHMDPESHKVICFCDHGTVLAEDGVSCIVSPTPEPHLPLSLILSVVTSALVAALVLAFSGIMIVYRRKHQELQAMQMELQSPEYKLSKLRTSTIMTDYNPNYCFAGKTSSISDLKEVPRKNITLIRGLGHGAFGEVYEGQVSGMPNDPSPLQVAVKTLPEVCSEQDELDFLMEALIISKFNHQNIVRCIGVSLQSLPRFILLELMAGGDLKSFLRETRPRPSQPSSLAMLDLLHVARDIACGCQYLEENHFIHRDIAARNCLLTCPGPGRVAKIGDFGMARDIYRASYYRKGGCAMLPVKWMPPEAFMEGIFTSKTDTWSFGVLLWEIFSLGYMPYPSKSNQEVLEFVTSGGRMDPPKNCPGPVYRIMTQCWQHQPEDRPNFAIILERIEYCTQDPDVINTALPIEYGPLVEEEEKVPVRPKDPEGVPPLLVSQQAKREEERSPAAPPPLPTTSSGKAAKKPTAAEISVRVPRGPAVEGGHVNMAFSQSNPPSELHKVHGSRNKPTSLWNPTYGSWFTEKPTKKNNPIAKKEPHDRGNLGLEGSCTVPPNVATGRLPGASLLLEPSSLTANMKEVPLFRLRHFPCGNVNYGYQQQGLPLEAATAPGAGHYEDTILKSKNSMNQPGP
UniProt P10398: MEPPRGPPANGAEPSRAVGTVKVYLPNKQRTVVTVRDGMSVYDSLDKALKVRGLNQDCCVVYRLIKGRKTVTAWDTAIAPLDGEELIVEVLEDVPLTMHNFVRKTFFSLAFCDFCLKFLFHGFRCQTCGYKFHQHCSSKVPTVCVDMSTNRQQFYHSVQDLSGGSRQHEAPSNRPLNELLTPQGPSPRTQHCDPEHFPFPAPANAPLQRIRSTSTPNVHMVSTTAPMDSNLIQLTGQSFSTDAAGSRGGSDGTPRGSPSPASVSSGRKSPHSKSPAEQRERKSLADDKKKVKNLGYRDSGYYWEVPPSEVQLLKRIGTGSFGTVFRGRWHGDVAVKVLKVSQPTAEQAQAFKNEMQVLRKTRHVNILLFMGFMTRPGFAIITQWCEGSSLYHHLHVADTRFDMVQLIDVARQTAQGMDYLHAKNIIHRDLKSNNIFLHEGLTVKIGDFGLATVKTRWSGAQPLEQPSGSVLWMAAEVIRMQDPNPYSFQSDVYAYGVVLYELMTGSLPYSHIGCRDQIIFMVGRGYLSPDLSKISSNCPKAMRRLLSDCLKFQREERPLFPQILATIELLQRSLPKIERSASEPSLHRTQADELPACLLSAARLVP
UniProt O14965: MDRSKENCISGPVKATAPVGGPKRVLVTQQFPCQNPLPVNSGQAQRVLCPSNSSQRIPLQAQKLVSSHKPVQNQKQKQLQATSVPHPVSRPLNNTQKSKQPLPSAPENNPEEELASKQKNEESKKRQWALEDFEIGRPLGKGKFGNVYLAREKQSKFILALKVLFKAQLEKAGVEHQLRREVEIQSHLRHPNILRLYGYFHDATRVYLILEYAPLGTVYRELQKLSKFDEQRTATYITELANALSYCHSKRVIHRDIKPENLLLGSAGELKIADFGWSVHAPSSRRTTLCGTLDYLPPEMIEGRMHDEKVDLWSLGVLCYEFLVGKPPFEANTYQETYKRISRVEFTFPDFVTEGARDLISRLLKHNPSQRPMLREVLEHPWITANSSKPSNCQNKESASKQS
UniProt Q96GD4, whole entry: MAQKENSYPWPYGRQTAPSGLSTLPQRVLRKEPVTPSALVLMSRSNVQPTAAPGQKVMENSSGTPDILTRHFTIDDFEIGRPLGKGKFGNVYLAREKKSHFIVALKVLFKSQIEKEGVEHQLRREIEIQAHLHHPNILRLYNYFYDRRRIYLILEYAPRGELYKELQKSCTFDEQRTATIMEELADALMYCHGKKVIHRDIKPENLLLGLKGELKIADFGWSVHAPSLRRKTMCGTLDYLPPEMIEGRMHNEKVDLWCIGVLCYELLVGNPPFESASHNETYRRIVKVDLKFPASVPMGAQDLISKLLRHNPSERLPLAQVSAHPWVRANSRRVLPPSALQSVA
UniProt Q9UQB9: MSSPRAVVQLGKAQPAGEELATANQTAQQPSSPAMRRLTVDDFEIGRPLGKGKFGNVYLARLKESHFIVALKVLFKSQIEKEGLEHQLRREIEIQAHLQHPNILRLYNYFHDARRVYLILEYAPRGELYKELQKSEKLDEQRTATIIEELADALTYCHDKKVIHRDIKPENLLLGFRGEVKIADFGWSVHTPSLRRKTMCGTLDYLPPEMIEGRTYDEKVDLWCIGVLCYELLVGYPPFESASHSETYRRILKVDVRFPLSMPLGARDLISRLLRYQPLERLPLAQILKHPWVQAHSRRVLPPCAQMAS
UniProt P51451: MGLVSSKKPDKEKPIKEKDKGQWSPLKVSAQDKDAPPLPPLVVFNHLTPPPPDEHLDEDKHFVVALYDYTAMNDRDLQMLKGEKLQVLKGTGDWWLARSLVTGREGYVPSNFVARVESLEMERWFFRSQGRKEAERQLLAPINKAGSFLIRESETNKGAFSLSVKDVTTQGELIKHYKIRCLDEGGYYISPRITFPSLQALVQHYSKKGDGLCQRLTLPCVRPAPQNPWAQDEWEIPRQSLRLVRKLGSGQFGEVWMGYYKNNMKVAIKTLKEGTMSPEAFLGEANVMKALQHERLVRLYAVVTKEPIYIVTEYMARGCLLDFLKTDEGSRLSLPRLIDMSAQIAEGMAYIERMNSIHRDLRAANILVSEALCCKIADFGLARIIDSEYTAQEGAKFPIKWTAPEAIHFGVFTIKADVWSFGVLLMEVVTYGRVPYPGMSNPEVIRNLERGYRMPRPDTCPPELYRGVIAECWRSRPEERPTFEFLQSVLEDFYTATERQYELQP
UniProt P51813: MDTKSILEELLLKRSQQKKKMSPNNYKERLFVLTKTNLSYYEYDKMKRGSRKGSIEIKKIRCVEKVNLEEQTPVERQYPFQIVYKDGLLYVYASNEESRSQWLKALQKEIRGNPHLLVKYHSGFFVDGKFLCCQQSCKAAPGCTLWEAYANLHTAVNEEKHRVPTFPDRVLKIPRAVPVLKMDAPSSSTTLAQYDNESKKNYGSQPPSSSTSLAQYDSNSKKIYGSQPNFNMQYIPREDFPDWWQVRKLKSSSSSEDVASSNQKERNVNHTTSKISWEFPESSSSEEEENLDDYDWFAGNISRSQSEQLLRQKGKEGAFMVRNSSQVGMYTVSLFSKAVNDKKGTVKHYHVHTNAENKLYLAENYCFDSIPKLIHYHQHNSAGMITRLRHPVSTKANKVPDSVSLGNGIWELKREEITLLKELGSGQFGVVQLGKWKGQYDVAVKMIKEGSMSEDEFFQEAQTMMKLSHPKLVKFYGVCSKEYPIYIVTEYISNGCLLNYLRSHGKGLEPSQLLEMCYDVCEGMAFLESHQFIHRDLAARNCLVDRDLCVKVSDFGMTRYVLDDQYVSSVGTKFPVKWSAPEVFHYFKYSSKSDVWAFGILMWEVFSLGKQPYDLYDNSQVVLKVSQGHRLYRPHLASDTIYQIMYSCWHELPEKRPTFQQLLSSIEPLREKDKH
UniProt P15056, whole entry, looked up: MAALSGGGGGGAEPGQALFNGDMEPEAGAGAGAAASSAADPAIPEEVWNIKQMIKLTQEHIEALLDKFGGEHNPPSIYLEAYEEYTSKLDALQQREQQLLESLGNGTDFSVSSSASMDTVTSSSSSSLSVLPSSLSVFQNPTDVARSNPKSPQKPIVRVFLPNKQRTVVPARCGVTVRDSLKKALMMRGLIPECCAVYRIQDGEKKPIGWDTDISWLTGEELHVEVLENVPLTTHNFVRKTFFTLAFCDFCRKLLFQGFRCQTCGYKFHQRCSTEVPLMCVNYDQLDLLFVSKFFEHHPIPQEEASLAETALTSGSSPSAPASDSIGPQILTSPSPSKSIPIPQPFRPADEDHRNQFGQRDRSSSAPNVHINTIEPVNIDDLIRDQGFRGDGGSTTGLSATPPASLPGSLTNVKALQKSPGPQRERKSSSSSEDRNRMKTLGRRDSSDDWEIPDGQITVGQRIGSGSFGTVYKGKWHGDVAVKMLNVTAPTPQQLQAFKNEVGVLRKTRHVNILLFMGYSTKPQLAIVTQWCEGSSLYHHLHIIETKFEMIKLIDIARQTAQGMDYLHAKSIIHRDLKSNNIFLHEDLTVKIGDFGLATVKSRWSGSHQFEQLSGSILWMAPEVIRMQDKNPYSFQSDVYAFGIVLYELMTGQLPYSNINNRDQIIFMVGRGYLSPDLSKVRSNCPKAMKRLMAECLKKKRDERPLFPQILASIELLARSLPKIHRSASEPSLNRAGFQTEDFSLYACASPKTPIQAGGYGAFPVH
UniProt Q06187: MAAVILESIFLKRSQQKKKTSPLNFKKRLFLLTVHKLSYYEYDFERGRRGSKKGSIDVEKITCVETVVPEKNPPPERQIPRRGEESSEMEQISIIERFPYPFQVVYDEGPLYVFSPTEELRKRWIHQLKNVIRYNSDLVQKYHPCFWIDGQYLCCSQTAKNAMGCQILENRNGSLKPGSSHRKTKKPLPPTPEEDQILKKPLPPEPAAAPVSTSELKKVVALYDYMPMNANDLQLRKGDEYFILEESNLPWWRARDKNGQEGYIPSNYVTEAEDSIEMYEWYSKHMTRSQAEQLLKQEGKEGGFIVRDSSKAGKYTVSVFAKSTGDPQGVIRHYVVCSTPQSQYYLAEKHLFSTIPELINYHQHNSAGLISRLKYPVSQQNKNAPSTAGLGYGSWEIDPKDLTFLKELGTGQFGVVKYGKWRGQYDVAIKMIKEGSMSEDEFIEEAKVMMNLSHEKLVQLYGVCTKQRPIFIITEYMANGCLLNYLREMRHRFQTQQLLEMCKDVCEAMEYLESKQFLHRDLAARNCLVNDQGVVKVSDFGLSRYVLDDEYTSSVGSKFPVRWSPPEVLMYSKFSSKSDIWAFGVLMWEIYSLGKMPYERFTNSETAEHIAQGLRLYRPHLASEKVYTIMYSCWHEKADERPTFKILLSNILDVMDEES

Key:
Experiment in all cases: number of time points (of 5) at which kinase-Nluc abundance scored as decreased, DMSO-normalised (count); higher = more persistent destabilization
Settings in all cases: K562; 2-18 h
[1] = target: ALK (UniProt Q9UM73)
[2] = target: ARAF (UniProt P10398)
[3] = target: AURKA (UniProt O14965)
[4] = target: AURKB (UniProt Q96GD4)
[5] = target: AURKC (UniProt Q9UQB9)
[6] = target: BLK (UniProt P51451)
[7] = target: BMX (UniProt P51813)
[8] = target: BRAF (UniProt P15056)
[9] = system: BRAF_V600E
[10] = target: BTK (UniProt Q06187)

Measured: number of time points

COC(=O)/C=C/c1ccc(O)c(OC)c1 [Ferulic acid methyl ester] (10 µM)
0: all assays above

O=C(Nc1nc2cccc(-c3ccc(CN4CCS(=O)(=O)CC4)cc3)n2n1)C1CC1 [Filgotinib] (2.5 µM)
0: all assays above

O=C(N=c1sccn1Cc1ccccc1)c1c[nH]c2ncccc12 (10 µM)
0: all assays above

O=C1c2c(O)cc(O)cc2O[C@H](c2cc(O)c(O)c(O)c2)[C@H]1O [Dihydromyricetin] (10 µM)
0: all assays above

CN(C)C(=O)c1cc2cnc(Nc3ccc(NC(=O)C4(C(=O)Nc5ccc(F)cc5)CC4)cc3)nc2n1C1CCCC1 (2 µM)
0: all assays above

Clc1ccc(Nc2cccc(-c3cn[nH]c3)c2)cc1 (10 µM)
0: all assays above

COC(=O)[C@]1(C)CC[C@]2(C(=O)O[C@@H]3O[C@H](CO)[C@@H](O)[C@H](O)[C@H]3O)CC[C@]3(C)C(=CC[C@@H]4[C@@]5(C)C[C@H](O)[C@H](O[C@@H]6OC[C@@H](O[C@@H]7O[C@H](CO)[C@@H](O)[C@H](O)[C@H]7O)[C@H](O)[C@H]6O)[C@@](C)(CO)C5CC[C@]43C)[C@H]2C1 (stereo not given in full) [Esculentoside H] (10 µM)
0: all assays above

CN(C/C=C/C(=O)Nc1ccc(C(=O)Nc2cccc(Nc3ncc(Cl)c(-c4c[nH]c5ccccc45)n3)c2)cc1)CCCNC(=O)NCCOCCOCCOCCNC(=O)CCCC[C@@H]1SC[C@@H]2NC(=O)N[C@@H]21 (2.5 µM)
2: [4] | [5] | [7]
0: [2] | [10]
1: [9]
3: all other assays above

CC(C)c1cnn2c(NCc3ccccc3)cc(NCCCCCCN)nc12 [BS-181 (hydrochloride)] (10 µM)
0: all assays above

Cc1ccc(Nc2c(C(N)=O)cnc3cc(-c4ccncc4)ccc23)cc1C [cFMS Receptor Inhibitor II] (10 µM)
0: all assays above

For reference, 2 of the compounds above:
Clc1ccc(Nc2cccc(-c3cn[nH]c3)c2)cc1 (10 µM)
0: all assays above

COC(=O)[C@]1(C)CC[C@]2(C(=O)O[C@@H]3O[C@H](CO)[C@@H](O)[C@H](O)[C@H]3O)CC[C@]3(C)C(=CC[C@@H]4[C@@]5(C)C[C@H](O)[C@H](O[C@@H]6OC[C@@H](O[C@@H]7O[C@H](CO)[C@@H](O)[C@H](O)[C@H]7O)[C@H](O)[C@H]6O)[C@@](C)(CO)C5CC[C@]43C)[C@H]2C1 (stereo not given in full) [Esculentoside H] (10 µM)
0: all assays above

Next compounds

CC(C)Cn1cc(C#N)c2cc(Oc3ccc(NC(=O)[C@@H]4CCCN4)cc3)ccc21 (10 µM)
0: all assays above

CC(C)(C)c1ccc(C(=O)Nc2cn3cc(-n4ccnc4)ccc3n2)cc1 (10 µM)
0: all assays above
